The text below walks through data of publication PMC9396398, “Crystal structure of Ankyrin-G in complex with a fragment of Neurofascin reveals binding mechanisms required for integrity of the axon initial segment” (The Journal of Biological Chemistry, 2022).

Chains of the proteins cited; added tags and fusions are not shown.
UniProt Q05695: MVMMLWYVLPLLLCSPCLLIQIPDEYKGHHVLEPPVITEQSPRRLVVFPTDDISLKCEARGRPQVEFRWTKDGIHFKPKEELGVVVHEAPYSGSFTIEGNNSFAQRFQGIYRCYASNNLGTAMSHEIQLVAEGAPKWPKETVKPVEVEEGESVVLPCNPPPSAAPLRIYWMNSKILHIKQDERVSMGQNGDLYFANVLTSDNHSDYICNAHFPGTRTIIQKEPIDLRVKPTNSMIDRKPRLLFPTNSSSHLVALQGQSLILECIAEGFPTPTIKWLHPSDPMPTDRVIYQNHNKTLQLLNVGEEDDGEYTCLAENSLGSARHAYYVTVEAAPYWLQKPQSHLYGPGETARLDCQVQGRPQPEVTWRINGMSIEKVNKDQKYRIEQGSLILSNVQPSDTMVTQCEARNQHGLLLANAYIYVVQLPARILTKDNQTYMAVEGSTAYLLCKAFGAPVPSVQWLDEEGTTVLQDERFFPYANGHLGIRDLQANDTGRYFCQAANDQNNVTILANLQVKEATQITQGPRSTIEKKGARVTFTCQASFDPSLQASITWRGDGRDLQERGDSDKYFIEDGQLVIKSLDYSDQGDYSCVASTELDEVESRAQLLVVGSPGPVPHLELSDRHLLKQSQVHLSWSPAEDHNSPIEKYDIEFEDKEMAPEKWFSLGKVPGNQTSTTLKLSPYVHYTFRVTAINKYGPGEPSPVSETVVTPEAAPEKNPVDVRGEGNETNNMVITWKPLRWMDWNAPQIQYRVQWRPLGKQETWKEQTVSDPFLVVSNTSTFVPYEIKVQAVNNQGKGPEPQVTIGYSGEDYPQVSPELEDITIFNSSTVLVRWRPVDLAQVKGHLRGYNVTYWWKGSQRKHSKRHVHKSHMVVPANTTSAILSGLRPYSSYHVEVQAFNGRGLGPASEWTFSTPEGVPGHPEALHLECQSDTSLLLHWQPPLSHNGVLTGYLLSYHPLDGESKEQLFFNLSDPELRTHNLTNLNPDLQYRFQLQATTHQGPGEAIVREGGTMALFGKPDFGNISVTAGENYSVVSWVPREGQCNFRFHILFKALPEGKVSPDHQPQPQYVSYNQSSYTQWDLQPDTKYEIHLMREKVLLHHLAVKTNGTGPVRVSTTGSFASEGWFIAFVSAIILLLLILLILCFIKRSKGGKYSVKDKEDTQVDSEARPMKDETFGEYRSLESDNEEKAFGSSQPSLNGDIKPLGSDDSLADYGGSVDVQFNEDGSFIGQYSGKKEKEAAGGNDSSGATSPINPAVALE

In assay [1] the target is T1, AnkG ANK repeats (residues 38-855, R1-24) (UniProt O70511).
T1 sequence: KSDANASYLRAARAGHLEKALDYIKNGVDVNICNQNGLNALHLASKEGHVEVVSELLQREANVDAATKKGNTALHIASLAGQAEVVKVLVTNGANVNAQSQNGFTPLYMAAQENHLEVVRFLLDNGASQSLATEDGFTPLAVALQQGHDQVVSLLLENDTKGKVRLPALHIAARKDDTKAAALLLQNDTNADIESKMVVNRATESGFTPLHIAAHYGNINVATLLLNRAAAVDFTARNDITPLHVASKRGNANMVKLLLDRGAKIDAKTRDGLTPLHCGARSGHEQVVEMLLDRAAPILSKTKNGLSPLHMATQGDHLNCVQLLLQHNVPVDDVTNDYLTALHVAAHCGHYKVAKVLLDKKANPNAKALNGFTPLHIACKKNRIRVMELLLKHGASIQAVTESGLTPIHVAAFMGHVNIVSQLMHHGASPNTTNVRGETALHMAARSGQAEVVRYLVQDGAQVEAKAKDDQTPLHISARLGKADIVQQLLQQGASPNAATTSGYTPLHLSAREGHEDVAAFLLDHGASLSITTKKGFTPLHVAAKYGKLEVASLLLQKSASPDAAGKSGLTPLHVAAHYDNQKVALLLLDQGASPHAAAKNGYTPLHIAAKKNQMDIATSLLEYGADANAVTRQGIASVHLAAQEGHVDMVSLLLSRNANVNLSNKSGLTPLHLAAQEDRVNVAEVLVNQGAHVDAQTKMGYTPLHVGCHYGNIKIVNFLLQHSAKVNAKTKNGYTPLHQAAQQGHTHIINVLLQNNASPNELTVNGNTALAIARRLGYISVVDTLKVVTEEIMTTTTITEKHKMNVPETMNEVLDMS
The assay can be described thus: ITC; VP-ITC at 25 °C; 50 mM Tris, 100 mM NaCl, 1 mM EDTA, 1 mM DTT, pH 7.8; Nfasc proteins (200 μM) in the syringe, AnkG proteins (20 μM) in the cell; one-site binding model; both purified.

Assay [2] addresses GST-L1CAM 1206 to 1233 WT (UniProt Q05695). The assay can be described thus: pull-down; GST pull-down: AnkG R1-24 (60 μM) incubated with 20 μM GST or GST-L1CAM 1206-1233 proteins 1 h at 4 °C, GSH-sepharose 4B beads, 3 washes, Coomassie blue staining; 50 mM Tris, 100 mM NaCl, 1 mM EDTA, 1 mM DTT, pH 7.8; both purified.
The target in assay [3] is T1, AnkG ANK repeats (residues 38-855, R1-24). The assay can be described thus: SEC; analytical gel filtration (FPLC) on Superose 12 or Superdex 200 increase; 50 mM Tris, 100 mM NaCl, 1 mM EDTA, 1 mM DTT, pH 7.8; both purified.
Assay [4] concerns the target T2, AnkG R8-16 (AnkG 275 to 571) (UniProt O70511).
T2 sequence: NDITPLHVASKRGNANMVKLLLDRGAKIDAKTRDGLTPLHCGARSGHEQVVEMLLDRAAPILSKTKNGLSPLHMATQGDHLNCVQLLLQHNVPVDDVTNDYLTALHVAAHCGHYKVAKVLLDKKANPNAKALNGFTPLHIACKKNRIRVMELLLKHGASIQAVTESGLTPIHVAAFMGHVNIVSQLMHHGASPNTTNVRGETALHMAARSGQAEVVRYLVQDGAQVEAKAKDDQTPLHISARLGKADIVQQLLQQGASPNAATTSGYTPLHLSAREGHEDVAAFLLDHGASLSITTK
Kind of assay: crystal structure; Nfasc 1187-1214 fused by the linker GSLVPRGS to the N-terminus of AnkG 275-571, tag removed; hanging drop at 16 °C; 2.5 Å; molecular replacement; both purified.

No constants are given. Whether binding was seen depends on the method and setting. Some binding calls cover weakened binding; strength is not graded here.

On to GEGQFNEKGSFIGQYTV (domain or fragment) [Nfasc 1198 to 1214 D1205K], for which the binding entry in assay [1] is recorded as “binds”.

B1: AnkG ANK repeats (residues 38-855, R1-24) (domain or fragment, UniProt O70511 38-855)
chain: KSDANASYLRAARAGHLEKALDYIKNGVDVNICNQNGLNALHLASKEGHVEVVSELLQREANVDAATKKGNTALHIASLAGQAEVVKVLVTNGANVNAQSQNGFTPLYMAAQENHLEVVRFLLDNGASQSLATEDGFTPLAVALQQGHDQVVSLLLENDTKGKVRLPALHIAARKDDTKAAALLLQNDTNADIESKMVVNRATESGFTPLHIAAHYGNINVATLLLNRAAAVDFTARNDITPLHVASKRGNANMVKLLLDRGAKIDAKTRDGLTPLHCGARSGHEQVVEMLLDRAAPILSKTKNGLSPLHMATQGDHLNCVQLLLQHNVPVDDVTNDYLTALHVAAHCGHYKVAKVLLDKKANPNAKALNGFTPLHIACKKNRIRVMELLLKHGASIQAVTESGLTPIHVAAFMGHVNIVSQLMHHGASPNTTNVRGETALHMAARSGQAEVVRYLVQDGAQVEAKAKDDQTPLHISARLGKADIVQQLLQQGASPNAATTSGYTPLHLSAREGHEDVAAFLLDHGASLSITTKKGFTPLHVAAKYGKLEVASLLLQKSASPDAAGKSGLTPLHVAAHYDNQKVALLLLDQGASPHAAAKNGYTPLHIAAKKNQMDIATSLLEYGADANAVTRQGIASVHLAAQEGHVDMVSLLLSRNANVNLSNKSGLTPLHLAAQEDRVNVAEVLVNQGAHVDAQTKMGYTPLHVGCHYGNIKIVNFLLQHSAKVNAKTKNGYTPLHQAAQQGHTHIINVLLQNNASPNELTVNGNTALAIARRLGYISVVDTLKVVTEEIMTTTTITEKHKMNVPETMNEVLDMS
As for B1, the binding result in assay [2] was “binds”.

B2: Nfasc ankyrin-binding domain (ABD, residues 1187-1214) (domain or fragment, UniProt P97685 1187-1214, looked up)
chain: SDDSLVDYGEGGEGQFNEDGSFIGQYTV
notes: also called Nfasc ABD; source: E. coli BL21 (DE3), purified (Ni-NTA, size-exclusion chromatography)
As to B2, the binding entry in assay [3] and in assay [4] was “binds” each time.

B3: full-length Nfasc cytoplasmic tail (residues 1132-1240) (domain or fragment)
chain: KRSRGGKYPVREKKDVPLGPEDPKEEDGSFDYSDEDNKPLQGSQTSLDGTIKQQESDDSLVDYGEGGEGQFNEDGSFIGQYTVRKDKEETEGNESSEATSPVNAIYSLA
As to B3, the binding entry in assay [1] is reported as “binds”.

For the molecule GEGQFNEDGSFIGQYTV (domain or fragment) [Nfasc 1198 to 1214 WT], in assay [1], the binding result is given as “binds”. Take GEGQFNEAGSFIGQYTV (domain or fragment) [Nfasc 1198 to 1214 D1205A]: in assay [1], the binding entry is listed as “binds”. Regarding GEGQFNEDGSQIGQYTV (domain or fragment) [Nfasc 1198 to 1214 F1208Q], in assay [1], the binding entry was “binds”.

Regarding GEGQFNEDGSFQGQYTV (domain or fragment) [Nfasc 1198 to 1214 I1209Q], the binding entry in assay [1] was “binds”.
